The list shows a part of the results. The main result of the screen is listed elsewhere. These columns were measured beside it and carry no call. Compounds called inactive in the main read-out are mostly missing here. Words in brackets tell the shape of the fitted curve; partial curves, single points and poor fits give uncertain potencies.

The nature of the experiment: qHTS Assay for Modulators of Lamin A Splicing. As to conditions: HeLa LMNA splicing GFP/RFP minigene ratio, 48 h. The essentials: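 Read-out is the ratio of GFP to DsRed2 object intensity, acquired by 488 nm laser-scanning cytometry on HeLa lamin A-EGFP minigene reporter cells. Compound incubation 48 hrs at 37 °C in Opti-MEM with 2% FBS; DMSO 0.5% final.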
In general terms: Quantitative high-throughput screening tests each substance at several concentrations.

Where [1] appears, read: measured here: GFP splicing reporter channel.
The mark [2] stands for this setting: measured here: RFP viability control channel.

As a reminder, the AC50 is the midpoint of the concentration-response curve, whichever way the signal moves. On to `CCCCCC(=O)NNC1=NCC(Cc2cccc(Cl)c2)S1` (stereo not drawn), for which the AC50 under setting [1] is 20 µM [falling, single point].
Take `C/C(=N/OCc1ccc(Br)cc1)c1ccccn1`: the AC50 under setting [2] was 0.447 µM [falling, partial curve, poor fit].
As for `Cc1nn(CCCC(=O)Nc2cccnc2Cl)c(C)c1[N+](=O)[O-]`, under setting [2], the AC50 is 0.00316 µM [rising, full curve, poor fit].
Take `COC(=O)C1=C(C)N=C2SC(C)C(=O)N2C1/C=C/c1ccccc1OC` (stereo not drawn): the half-maximal activity concentration (AC50) reads like this: under setting [1], 15.8 µM [rising, single point]; under setting [2], 35.5 µM [rising, single point].
`CC(CNC(=O)c1ccc2c(c1)nc1n2CCOC1)c1ccccc1` (stereo not drawn): the AC50 runs as follows: under setting [1], 0.126 µM [rising, full curve, poor fit]; under setting [2], 35.5 µM [rising, single point].
As for `Cc1ccc(-c2nnc(N3CCN(c4ccccn4)CC3)c3ccccc23)cc1`, the AC50 by setting is: under setting [1], 35.5 µM [falling, single point]; under setting [2], 35.5 µM [falling, single point].
Consider `Nc1c2c(nc3ccccc13)N(C1CCCCC1)CC2`, for which the AC50 under setting [2] is 11.2 µM [rising, partial curve].
In the case of `O=C(c1cccs1)n1nc(NCc2ccccc2)nc1NCc1ccccc1`, the AC50 was 31.6 µM [rising, single point] under setting [1] and 17.8 µM [rising, single point] under setting [2].
`Cc1ccc2c(c1)c1c3n2CCCN(Cc2ccccc2)C3CCC1` (stereo not drawn): under setting [1], the AC50 is 0.02 µM [falling, full curve, poor fit].
In the case of `COc1ccc(/C=C/C(=O)Nc2ccc(OC)nc2)cc1`, the AC50 is 12.6 µM [rising, partial curve] under setting [1] and 22.4 µM [rising, partial curve] under setting [2].
Consider `COc1cc(/C=C(\C#N)C(=O)Nc2cccc3ncccc23)cc(OC)c1OC`, for which the AC50 under setting [2] is 25.1 µM [rising, single point].
`Cc1ccc(-c2nnc(NCc3nc4ccccc4[nH]3)c3ccccc23)cc1S(=O)(=O)N1CCOCC1`: the AC50 reads like this: under setting [1], 35.5 µM [rising, single point]; under setting [2], 25.1 µM [rising, single point].
With `Cc1ccc(NC(=S)NCCc2ccccc2)c(C)c1`, the AC50 was 11.2 µM [rising, partial curve] under setting [1] and 22.4 µM [rising, single point] under setting [2].
With `Cc1ccc(Sc2ncnc(N)c2[N+](=O)[O-])cc1`, the AC50 under setting [2] was 7.94 µM [rising, partial curve].
For the molecule `S=c1[nH]nc(C2CCCCC2)o1`, the AC50 under setting [2] was 11.2 µM [falling, partial curve].
The same measure, in the same setting: the value for `O=C(N/N=C\c1cc(Br)cs1)C1COc2ccccc2O1` (stereo not drawn) was 25.1 µM [rising, partial curve].

For the origin of these results see PubChem BioAssay AID1487 (National Center for Advancing Translational Sciences (NCATS), 2009).
